Results on one compound are retold here after ChEMBL document CHEMBL1144547, “Synthesis, antimalarial, antileishmanial, antimicrobial, cytotoxicity, and methemoglobin (MetHB) formation activities of new 8-quinolinamines” (Bioorg Med Chem, 2007).

This test concerns Candida albicans. Briefly: Antifungal activity against Candida albicans ATCC 90028 after 18 to 24 hrs. It is filed as functional, organism-based.

Values after ≈ are worked out from the molar mass of the structure shown.

One may read the MIC as the lowest concentration that inhibits growth of the organism. Low readings indicate greater potency, high ones weaker potency. Take `C[C@@H]1[C@H](O)[C@@H](C)/C=C/C=C/C=C/C=C/C=C/C=C/C=C/[C@H](O[C@@H]2O[C@H](C)[C@@H](O)[C@H](N)[C@@H]2O)C[C@@H]2O[C@](O)(C[C@@H](O)C[C@@H](O)[C@H](O)CC[C@@H](O)C[C@@H](O)CC(=O)O[C@H]1C)C[C@H](O)[C@H]2C(=O)O` [AMPHOTERICIN B]: 0.63 µg/mL (≈ 0.682 µM) was the least that counted as inhibitory (MIC).
